Source: BindingDB's records for doi:10.1016/s0742-8413(97)00614-2 (University of Montana, 1997)

Molecular target: T1, 5-hydroxytryptamine receptor 1A (Oryctolagus cuniculus, UniProt Q9MZ11)
T1 sequence (Q9MZ11 whole entry): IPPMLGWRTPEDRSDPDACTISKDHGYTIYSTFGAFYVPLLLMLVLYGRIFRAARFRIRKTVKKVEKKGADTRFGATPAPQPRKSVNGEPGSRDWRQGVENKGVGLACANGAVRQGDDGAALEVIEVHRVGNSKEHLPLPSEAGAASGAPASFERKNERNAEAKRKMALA

Ki: 78 nM
Compound: CC(C)NC[C@H](O)COc1cccc2ccccc12 [Propanolol,(+/-)]
